Results of single-concentration screens

By UniProt entry, the sequences of proteins in these tests, tags left out. Residues count along the entry.
UniProt I6X8D2, whole entry: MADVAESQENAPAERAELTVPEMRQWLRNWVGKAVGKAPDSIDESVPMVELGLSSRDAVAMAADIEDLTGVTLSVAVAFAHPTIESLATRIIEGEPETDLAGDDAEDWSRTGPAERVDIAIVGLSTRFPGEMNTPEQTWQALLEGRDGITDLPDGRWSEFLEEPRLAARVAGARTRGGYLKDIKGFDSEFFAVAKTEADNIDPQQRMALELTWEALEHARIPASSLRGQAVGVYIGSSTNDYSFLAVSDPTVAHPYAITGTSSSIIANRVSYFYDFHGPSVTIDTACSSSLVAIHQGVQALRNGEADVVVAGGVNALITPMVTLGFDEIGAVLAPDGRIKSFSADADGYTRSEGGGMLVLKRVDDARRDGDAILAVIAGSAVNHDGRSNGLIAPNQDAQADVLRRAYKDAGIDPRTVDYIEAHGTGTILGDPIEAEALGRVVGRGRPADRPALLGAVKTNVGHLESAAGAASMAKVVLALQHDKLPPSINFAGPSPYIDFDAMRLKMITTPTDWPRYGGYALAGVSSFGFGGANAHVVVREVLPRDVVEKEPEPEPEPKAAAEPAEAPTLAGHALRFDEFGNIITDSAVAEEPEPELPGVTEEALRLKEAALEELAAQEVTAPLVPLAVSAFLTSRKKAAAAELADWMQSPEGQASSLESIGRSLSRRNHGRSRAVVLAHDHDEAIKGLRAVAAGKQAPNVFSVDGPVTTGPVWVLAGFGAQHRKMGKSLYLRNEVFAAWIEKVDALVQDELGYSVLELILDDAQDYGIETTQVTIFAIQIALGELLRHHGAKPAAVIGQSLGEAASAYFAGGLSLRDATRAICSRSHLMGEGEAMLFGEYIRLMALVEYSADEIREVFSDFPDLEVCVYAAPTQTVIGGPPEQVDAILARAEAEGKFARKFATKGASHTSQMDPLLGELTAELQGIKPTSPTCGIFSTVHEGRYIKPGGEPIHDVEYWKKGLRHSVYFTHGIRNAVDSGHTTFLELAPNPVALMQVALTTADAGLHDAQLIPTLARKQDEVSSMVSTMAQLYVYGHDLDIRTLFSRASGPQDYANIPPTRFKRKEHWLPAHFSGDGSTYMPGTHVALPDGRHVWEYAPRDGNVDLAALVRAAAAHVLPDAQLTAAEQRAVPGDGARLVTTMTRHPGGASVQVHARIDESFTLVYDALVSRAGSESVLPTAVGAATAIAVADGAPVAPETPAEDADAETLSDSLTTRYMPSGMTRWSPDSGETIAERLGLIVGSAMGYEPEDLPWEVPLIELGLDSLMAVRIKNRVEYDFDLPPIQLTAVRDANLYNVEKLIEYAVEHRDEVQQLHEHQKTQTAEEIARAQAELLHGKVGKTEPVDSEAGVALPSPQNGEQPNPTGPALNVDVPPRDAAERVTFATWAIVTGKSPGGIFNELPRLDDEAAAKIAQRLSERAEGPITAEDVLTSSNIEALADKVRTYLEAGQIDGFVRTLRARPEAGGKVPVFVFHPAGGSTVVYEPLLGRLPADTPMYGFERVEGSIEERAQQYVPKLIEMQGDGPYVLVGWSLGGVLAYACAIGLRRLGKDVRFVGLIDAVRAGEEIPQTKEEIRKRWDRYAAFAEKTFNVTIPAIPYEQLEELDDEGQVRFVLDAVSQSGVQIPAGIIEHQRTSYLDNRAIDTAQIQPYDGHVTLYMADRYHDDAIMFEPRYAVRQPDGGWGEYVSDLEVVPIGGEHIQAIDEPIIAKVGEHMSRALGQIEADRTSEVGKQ
UniProt P9WNZ1, whole entry: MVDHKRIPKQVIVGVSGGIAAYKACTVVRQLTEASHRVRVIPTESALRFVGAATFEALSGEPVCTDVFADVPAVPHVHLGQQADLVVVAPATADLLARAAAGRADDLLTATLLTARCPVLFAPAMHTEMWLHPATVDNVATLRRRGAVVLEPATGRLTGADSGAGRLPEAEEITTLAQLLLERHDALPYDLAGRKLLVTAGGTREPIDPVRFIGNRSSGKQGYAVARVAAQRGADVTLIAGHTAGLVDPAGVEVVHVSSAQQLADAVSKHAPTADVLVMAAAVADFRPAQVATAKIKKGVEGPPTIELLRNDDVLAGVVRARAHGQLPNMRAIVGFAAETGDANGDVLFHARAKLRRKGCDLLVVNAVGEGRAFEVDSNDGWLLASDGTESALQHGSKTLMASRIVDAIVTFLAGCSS
UniProt Q8IDJ8, 1-583: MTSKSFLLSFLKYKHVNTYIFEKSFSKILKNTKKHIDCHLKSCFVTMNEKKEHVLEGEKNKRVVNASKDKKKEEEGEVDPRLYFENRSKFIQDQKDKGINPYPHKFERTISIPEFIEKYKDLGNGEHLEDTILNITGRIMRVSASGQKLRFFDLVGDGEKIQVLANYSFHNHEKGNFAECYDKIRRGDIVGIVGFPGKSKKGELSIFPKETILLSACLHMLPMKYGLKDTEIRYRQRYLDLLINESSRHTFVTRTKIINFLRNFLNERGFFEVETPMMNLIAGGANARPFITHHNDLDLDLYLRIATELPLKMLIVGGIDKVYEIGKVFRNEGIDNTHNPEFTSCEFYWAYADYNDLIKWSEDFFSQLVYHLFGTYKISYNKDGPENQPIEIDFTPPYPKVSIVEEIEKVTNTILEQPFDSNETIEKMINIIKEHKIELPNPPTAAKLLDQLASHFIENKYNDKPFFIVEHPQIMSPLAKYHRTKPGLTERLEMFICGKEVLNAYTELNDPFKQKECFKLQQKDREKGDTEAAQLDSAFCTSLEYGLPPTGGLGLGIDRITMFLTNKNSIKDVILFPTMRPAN
UniProt Q4DA54, 1-478: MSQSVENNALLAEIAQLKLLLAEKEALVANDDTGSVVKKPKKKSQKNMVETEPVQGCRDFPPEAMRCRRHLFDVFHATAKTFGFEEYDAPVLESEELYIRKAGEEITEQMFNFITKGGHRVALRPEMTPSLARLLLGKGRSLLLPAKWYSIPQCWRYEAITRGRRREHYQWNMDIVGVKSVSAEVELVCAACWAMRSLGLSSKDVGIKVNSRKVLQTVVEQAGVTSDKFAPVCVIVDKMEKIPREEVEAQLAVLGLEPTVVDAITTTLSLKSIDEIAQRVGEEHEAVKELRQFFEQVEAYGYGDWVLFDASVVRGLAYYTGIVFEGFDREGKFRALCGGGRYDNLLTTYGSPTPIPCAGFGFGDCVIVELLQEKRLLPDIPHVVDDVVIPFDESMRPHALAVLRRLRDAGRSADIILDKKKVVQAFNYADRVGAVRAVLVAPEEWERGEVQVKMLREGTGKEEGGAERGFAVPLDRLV

Pks13 thioesterase: 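Polyketide synthase Pks13, Mycobacterium tuberculosis (UniProt I6X8D2). Enzyme assay of the thioesterase domain of polyketide synthase 13; the read-out is not stated. Concentration: 30 µM. The record gives no direction; the compounds picked for IC50 retests had high values, so higher reads as stronger inhibition. About 67,000 compounds were tested under these conditions; 0.46% (about 300) showed 50% or more at least once.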
CoaBC: 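Enzyme assay of CoaBC with a phosphate dye (Biomol Green) read at 650 nm. Target: Coenzyme A biosynthesis protein CoaBC, Mycobacterium tuberculosis (UniProt P9WNZ1). Tested at 30 µM. Direction is inferred from only a few compounds that gave an IC50; most scored high, so higher reads as stronger inhibition. Most strong results did not repeat in a second test. Size under these conditions: about 67,000 compounds, about 40 of them at 50% or above in at least one test.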
PfKRS1: 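Enzyme assay of the cytosolic lysyl-tRNA synthetase in 384-well plates, read by luminescence. Target: Lysine-tRNA ligase, Plasmodium falciparum 3D7 (UniProt Q8IDJ8). Concentration: 30 µM. Direction is inferred from only a few compounds that gave an IC50; most scored high, so higher reads as stronger inhibition. Size under these conditions: about 69,000 compounds, about 49 of them at 50% or above in at least one test.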
TcHisRS: 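Enzyme assay of histidyl-tRNA synthetase; the read-out is not stated. Target: Histidine-tRNA ligase, Trypanosoma cruzi CL Brener (UniProt Q4DA54). Concentration: 30 µM. Higher reads as stronger inhibition (inferred: compounds with an IC50 in retests scored well above the rest). About 69,000 compounds were tested under these conditions; 0.045% (about 31) showed 50% or more at least once.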

Values are the deposited “Percent Effect”, in %. The controls that fix the scale are not given in the record; negative values are as filed. The compounds are a random part of those screened.

structure: CC(C)c1ncc2c(n1)CN(Cc1noc(-c3ccccc3)n1)CC2
Pks13 thioesterase: 8.223
CoaBC: 0
PfKRS1: 1.35
TcHisRS: 13.26

structure: COC(=O)C1=C(C)N=C2SCC(=O)N2C1c1cn(C)nc1C (stereo unspecified)
Pks13 thioesterase: -101.6
CoaBC: 6.075
PfKRS1: 1.173
TcHisRS: 3.097

structure: CCSc1ccc(NC(=O)NC(C)c2ccncc2)cn1 (stereo unspecified)
Pks13 thioesterase: -17.88
PfKRS1: -4.495
TcHisRS: 5.195

structure: CC(=O)c1cc(CN2CCCC2c2nc3ccc(C)cc3[nH]2)cs1 (stereo unspecified)
Pks13 thioesterase: -33.68
CoaBC: -1.542
PfKRS1: 11.41
TcHisRS: 6.704

structure: Cn1ccnc1CN1CCC2(CC1)CN(c1cncnc1)C(=O)CO2
Pks13 thioesterase: 11.91
CoaBC: 0.1236
PfKRS1: 0.2523
TcHisRS: -1.02

structure: CCn1nc(C(=O)N2CCCC(n3cncn3)C2)ccc1=O (stereo unspecified)
Pks13 thioesterase: -15.75
CoaBC: 2.564
PfKRS1: 7.707
TcHisRS: -0.3774

structure: CC1c2ncc(CNC(=O)C3CC3)n2CCN1Cc1ccccn1 (stereo unspecified)
Pks13 thioesterase: 11.44
CoaBC: -9.741
PfKRS1: -3.75
TcHisRS: 0

structure: COc1cc(CNC(C)Cn2cccn2)cc(OC)c1OC (stereo unspecified)
Pks13 thioesterase: -3.431
CoaBC: 2.169
PfKRS1: 4.069
TcHisRS: 3.053

structure: Cc1cc(C(=O)N2CCC3(CC(=O)NC3=O)C2)c(-c2ccccc2)o1 (stereo unspecified)
Pks13 thioesterase: 7.83
CoaBC: 16.63
PfKRS1: -2.617
TcHisRS: -5.833

structure: Cc1nc2c(c(NCC(c3ccccc3C)N(C)C)n1)CCNC2 (stereo unspecified)
Pks13 thioesterase: -1.967
CoaBC: -22.22
PfKRS1: -0.4693
TcHisRS: 12.12

structure: Cc1nc(CC(=O)N2CCCC2Cn2cccn2)cs1 (stereo unspecified)
Pks13 thioesterase: -16.2
CoaBC: 1.828
PfKRS1: 0.1006
TcHisRS: 2.825

structure: O=C(NCCc1ccccc1)N1CCC(C2OCCO2)CC1
Pks13 thioesterase: -37.85
CoaBC: -0.6036
PfKRS1: 6.583
TcHisRS: 3.933

structure: CCN(CC)Cc1ccc(C(=O)N2CCCCC2Cn2cccn2)o1 (stereo unspecified)
Pks13 thioesterase: -5.14
CoaBC: 3.71
PfKRS1: -1.545
TcHisRS: -1.916

structure: CN1CCO[C@@H]2CN(C(=O)c3ccc4ncccc4c3)CC[C@@H]2C1
Pks13 thioesterase: -23.33
CoaBC: 5.172
PfKRS1: 3.579
TcHisRS: 3.093

structure: c1coc(CN2CCOC3(COCCN(Cc4ccncc4)C3)C2)c1 (stereo unspecified)
Pks13 thioesterase: -7.876
CoaBC: 6.483
PfKRS1: 5.053
TcHisRS: 5.473

structure: CC(=O)N[C@@H]1CN(Cc2ccc(F)cc2F)C[C@H]1c1ccc(C)o1
Pks13 thioesterase: -18.24
CoaBC: 0.2049
PfKRS1: -7.416
TcHisRS: 8.511

structure: Cc1cc(C2CN(CC(=O)NCc3ccco3)CCO2)ccc1F (stereo unspecified)
Pks13 thioesterase: -10.01
CoaBC: 0.369
PfKRS1: 4.042
TcHisRS: -1.149

structure: CN1CCOC(CNCc2ccc(OCc3ccccn3)cc2)C1 (stereo unspecified)
Pks13 thioesterase: 14.7
CoaBC: 12.94
PfKRS1: 0.6605
TcHisRS: 6.977

structure: CN1CCCN(C(=O)c2cnc(Cc3c(Cl)cccc3Cl)nc2O)CC1
Pks13 thioesterase: -37.16
CoaBC: 8.678
PfKRS1: -2.138
TcHisRS: 1.63

structure: c1ccc(Cc2cncc(C3CCCN3C3CCOCC3)n2)cc1 (stereo unspecified)
Pks13 thioesterase: 2.115
CoaBC: -7.622
PfKRS1: 1.024
TcHisRS: 3.03

structure: CCCS(=O)(=O)N1C[C@H]2OC(=O)N(CCc3cccc(Cl)c3)[C@H]2C1
Pks13 thioesterase: -10.44
CoaBC: -11.16
PfKRS1: 4.138
TcHisRS: 4.564

structure: O=C(NCCO)c1ccn(-c2ccc3ccccn23)n1
Pks13 thioesterase: 7.283
CoaBC: -4.505
PfKRS1: -2.137
TcHisRS: 3.825

structure: CCn1c(C)nnc1SCCNC(=O)c1sc(C(C)C)nc1C
Pks13 thioesterase: -18.56
CoaBC: -2.581
PfKRS1: 12.74
TcHisRS: 4.663

structure: CCC(=O)N1CCCN(Cc2cc(F)cc(Br)c2)CC1
Pks13 thioesterase: 0.745
CoaBC: -1.392
PfKRS1: -0.236
TcHisRS: 6.211

structure: COc1ccc(-n2cnnc2CC2CCNCC2)cc1
Pks13 thioesterase: -25.13
CoaBC: 12.18
PfKRS1: -5.451
TcHisRS: 6.667

structure: O=C(NCCCO)c1nnsc1-c1ccccc1
Pks13 thioesterase: 12
CoaBC: -0.5102
PfKRS1: 2.907
TcHisRS: 2.232

structure: Cc1cc(CNc2nccc(N)n2)c2[nH]c(C)c(C)c2c1
Pks13 thioesterase: -5.567
CoaBC: -48.27
PfKRS1: 2.633
TcHisRS: 20

structure: Cc1nc(CNC(=O)C(C)(C)c2ccc(F)cc2)no1
Pks13 thioesterase: -2.793
CoaBC: -2.174
PfKRS1: -2.408
TcHisRS: 8.021

From ChEMBL document CHEMBL3988442, “University of Dundee, Small-Polar-MMV Screening Library” (2021).